Tested on: SARS-CoV-2
Experiment: In vitro antiviral immunostaining assay in Vero E6 cells
Conditions: Vero E 6 cells

CCC(CC)COC(=O)[C@H](C)N[P@](=O)(OC[C@H]1O[C@@](C#N)(c2ccc3c(N)ncnn23)[C@H](O)[C@@H]1O)Oc1ccccc1 [Remdesivir]
EC50: 1150 nM

Reference: patent publication US20250268967A1, “NUTRACEUTICAL COMPOUNDS USEFUL IN THE TREATMENT OF CORONAVIRUS DISEASE” (priority 2020, published 2025)
